# Experimental data reported in the supplement of paper PMC7024190.
# Counter-ions that a name gives are not always drawn. This is one part of the list. This data set is noisy: repeats of one test often differ as much as different tests do.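 Human embryonic kidney cells were transiently transfected with a plasmid bearing a Renilla luciferase gene under the HSV-TK promoter. This first-round screen tests roughly ten thousand compounds for ones that increase reporter output.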
# Test system: HEK 293FT
# Experiment: log relative Renilla luciferase luminescence (reporter expression vs reference, reference not stated) (log (base not stated)); higher = higher recombinant reporter expression
# Conditions: 10 µM; time after transfection 48 h
row,Compound,log
1,CCCCC1C(=O)N(c2ccccc2)N(c2ccc(O)cc2)C1=O (centres undefined) [Oxyphenbutazone],0.128
2,N[C@H]1CONC1=O [(S)-(-)-Cycloserine],0.131
3,CCN(CC)C(=O)Nc1ccc(OCC(O)CNC(C)(C)C)c(C(C)=O)c1 (centres undefined) [Celiprolol HCl],-0.0311
4,COc1cc2nc(N3CCN(C(=O)C4COc5ccccc5O4)CC3)nc(N)c2cc1OC (centres undefined) [Doxazosin mesylate],-0.0393
5,Cc1cc(C(C)(C)C)cc(C)c1CC1=NCCN1 [Xylometazoline hydrochloride],0.131
6,CCN(CCCCOC(=O)c1ccc(OC)c(OC)c1)C(C)Cc1ccc(OC)cc1 (centres undefined) [Mebeverine hydrochloride],0.122
7,CCN(CC)CCOCCOC(=O)C1(c2ccccc2)CCCC1 [Carbetapentane citrate],0.106
8,Cc1c(N)c(=O)n(-c2ccccc2)n1C [Ampyrone],-0.024
9,NC[C@H]1O[C@H](O[C@H]2[C@H](O)[C@@H](O[C@H]3O[C@H](CO)[C@@H](O)[C@H](N)[C@H]3O)[C@H](N)C[C@@H]2N)[C@H](N)C[C@@H]1O [Tobramycin],-0.41
10,C=CCOc1ccccc1OCC(O)CNC(C)C (centres undefined) [Oxprenolol hydrochloride],-0.0188
11,CCOC(=O)/C=C(C)/C=C/C=C(C)/C=C/c1c(C)cc(OC)c(C)c1C [Etretinate],-0.0878
12,CC(C)C(=O)c1c(C(C)C)nn2ccccc12 [Ibudilast],0.000654
13,OC(CCN1CCCC1)(c1ccccc1)C1CCCCC1 (centres undefined) [Procyclidine hydrochloride],-0.0131
14,CC(C)NCC(O)COc1cccc2[nH]ccc12 (centres undefined) [Pindolol],-0.0328
15,CC(CN(C)C)CN1c2ccccc2CCc2ccccc21 (centres undefined) [Trimipramine maleate salt],-0.139
16,C=C1C(=O)O[C@H]2[C@H]1CC/C(C)=C/CC[C@@]1(C)O[C@@H]21 [Parthenolide],-0.0681
17,CCCCOc1ccc(C(=O)CCN2CCCCC2)cc1 [Dyclonine hydrochloride],-0.0733
18,CC(C)(C)CC(C)(C)c1ccc(OCCOCC[N+](C)(C)Cc2ccccc2)cc1 [Benzethonium chloride],-1.09
19,"CN1[C@@H]2CC[C@H]1C[C@@H](OC(=O)C(O)c1ccccc1)C2 (mixture of isomers) [Homatropine hydrobromide (R,S)]",0.0878
20,Cn1nnc2c(C(N)=O)ncn2c1=O [Temozolomide],-0.0364
21,CC(C)(C)NC(=O)[C@H]1CC[C@H]2[C@@H]3CC[C@H]4NC(=O)C=C[C@]4(C)[C@H]3CC[C@]12C [Finasteride],0.0464
22,Nc1nc(N)c2nc(-c3ccccc3)c(N)nc2n1 [Triamterene],0.116
23,Cc1c(Nc2ncccc2C(=O)O)cccc1C(F)(F)F [Flunixin meglumine],-0.072
24,CC[C@H](c1ccc(O)cc1)[C@@H](CC)c1ccc(O)cc1 [Hexestrol],-0.615
25,CC1(C)O[C@@H]2C[C@H]3[C@@H]4C[C@H](F)C5=CC(=O)C=C[C@]5(C)[C@H]4[C@@H](O)C[C@]3(C)[C@]2(C(=O)CO)O1 [Flunisolide],-0.153
26,CN(Cc1cc(Br)cc(Br)c1N)C1CCCCC1 [Bromhexine hydrochloride],-0.0219
27,C[C@H](CS)C(=O)N1CCC[C@H]1C(=O)O [Captopril],0.134

# In the list so far, these contain a carbonyl joined to an NH by a bond outside any ring:
row,Compound,log
3,CCN(CC)C(=O)Nc1ccc(OCC(O)CNC(C)(C)C)c(C(C)=O)c1 (centres undefined) [Celiprolol HCl],-0.0311
20,Cn1nnc2c(C(N)=O)ncn2c1=O [Temozolomide],-0.0364
21,CC(C)(C)NC(=O)[C@H]1CC[C@H]2[C@@H]3CC[C@H]4NC(=O)C=C[C@]4(C)[C@H]3CC[C@]12C [Finasteride],0.0464

# Another view of two compounds above.
row	Compound	log
16	C=C1C(=O)O[C@H]2[C@H]1CC/C(C)=C/CC[C@@]1(C)O[C@@H]21 [Parthenolide]	-0.0681
17	CCCCOc1ccc(C(=O)CCN2CCCCC2)cc1 [Dyclonine hydrochloride]	-0.0733

# The list goes on:

row,Compound,log
1,NCCc1ccc(O)c(O)c1 [Dopamine hydrochloride],0.0303
2,CCN1CCCC1CNC(=O)c1cc(S(N)(=O)=O)ccc1OC (centres undefined) [Sulpiride],0.134
3,CCCCc1oc2ccccc2c1C(=O)c1cc(I)c(OCCN(CC)CC)c(I)c1 [Amiodarone hydrochloride],-0.624
4,O=C(O)c1cccnc1 [Niacin],-0.954
5,Cc1cccc(N(C)C(=S)Oc2ccc3ccccc3c2)c1 [Tolnaftate],0.0878
6,O=c1[nH]c(=O)n([C@H]2C[C@H](O)[C@@H](CO)O2)cc1I [Idoxuridine],0.187
7,CC1(C)O[C@@H]2C[C@H]3[C@@H]4C[C@H](F)C5=CC(=O)CC[C@]5(C)[C@H]4[C@@H](O)C[C@]3(C)[C@]2(C(=O)CO)O1 [Flurandrenolide],-0.0288
8,NNC(=O)c1ccncc1 [Isoniazid],-0.0293
9,CCN(CC)CCN[C@@H](C(=O)OCCC(C)C)c1ccccc1 [Camylofine chlorhydrate],0.0159
10,CN1CCCN=C1/C=C/c1cccs1 [Pyrantel tartrate],0.113
11,CCC[C@@H]1C[C@@H](C(=O)N[C@@H]([C@H]2O[C@H](SC)[C@H](O)[C@@H](O)[C@H]2O)[C@@H](C)O)N(C)C1 [Lincomycin hydrochloride],-1.3
12,C#C[C@]1(O)CC[C@H]2[C@@H]3CCC4=Cc5oncc5C[C@]4(C)[C@H]3CC[C@@]21C [Danazol],0.054
13,CCOc1ccc(Cc2nccc3cc(OCC)c(OCC)cc23)cc1OCC [Ethaverine hydrochloride],-0.603
14,O=C(Nc1ccc([N+](=O)[O-])cc1Cl)c1cc(Cl)ccc1O [Niclosamide],-1.22
15,CC12CC3CC(C)(C1)CC(N)(C3)C2 [Memantine Hydrochloride],-0.147
16,CC(C)NNC(=O)c1ccncc1 [Iproniazide phosphate],0.054
17,CCN(CC)CCNC(=O)c1cc(Br)c(N)cc1OC [Bromopride],0.1
18,OC(CCN1CCCCC1)(c1ccccc1)c1ccccc1 [Pridinol methanesulfonate salt],0.122
19,C[C@H](CCC(=O)O)[C@H]1CC[C@H]2[C@@H]3C(=O)C[C@@H]4CC(=O)CC[C@]4(C)[C@H]3CC(=O)[C@]12C [Dehydrocholic acid],0.0361
20,CCOC(=O)C1=C(C)NC(C)=C(C(=O)OC)C1c1cccc(Cl)c1Cl (centres undefined) [Felodipine],-1.02
21,O=C1c2c(O)ccc(O)c2C(=O)c2c(NCCNCCO)ccc(NCCNCCO)c21 [Mitoxantrone dihydrochloride],-1.38
22,O=C(NC(Cc1cc(=O)[nH]c2ccccc12)C(=O)O)c1ccc(Cl)cc1 (centres undefined) [Rebamipide],0.0806
23,Nc1ncn(C2OC(CO)C(O)C2O)c(=O)n1 (centres undefined) [Azacytidine-5],0.00954
24,CC(C)(C)NC[C@H](O)COc1cccc2c1CCCC2=O [(-) -Levobunolol hydrochloride],-0.0369
25,C[N+](C)(C)CCOC(N)=O [Carbachol],-0.00216
26,O=C(O)CCC(=O)c1ccc(-c2ccccc2)cc1 [Fenbufen],0.0159
27,N[C@@H](Cc1ccc(O)c(O)c1)C(=O)O [Levodopa],-0.00821

row,Compound,log
1,CN1CCN2c3ccccc3Cc3ccccc3C2C1 (centres undefined) [Mianserine hydrochloride],0.0331
2,CCC(C)(C)C(=O)O[C@H]1C[C@@H](C)C=C2C=C[C@H](C)[C@H](CC[C@@H]3C[C@@H](O)CC(=O)O3)[C@H]21 [Simvastatin],-0.174
3,CC(=O)Oc1ccc(C(c2ccc(OC(C)=O)cc2)c2ccccn2)cc1 [Bisacodyl],-0.22
4,CCCc1nn(C)c2c(=O)[nH]c(-c3cc(S(=O)(=O)N4CCN(C)CC4)ccc3OCC)nc12 [Sildenafil],0.00502
5,CCCNC(C)(C)COC(=O)c1ccccc1 [Meprylcaine hydrochloride],0.0655
6,NC1CCN(c2c(F)cc3c(=O)c(C(=O)O)cn(C4CC4)c3c2Cl)C1 (centres undefined) [Clinafloxacin],-0.085
7,CCC1(C)CC(=O)NC1=O (centres undefined) [Ethosuximide],-0.0382
8,C[N+](C)(CCOc1ccccc1)Cc1ccccc1.O=C([O-])c1cc2ccccc2cc1O [Bephenium hydroxynaphthoate],0.166
9,CC(NCCc1ccc(O)cc1)C(O)c1ccc(O)cc1 (centres undefined) [Ritodrine hydrochloride],0.115
10,CCc1nn(CCCN2CCN(c3cccc(Cl)c3)CC2)c(=O)n1CCOc1ccccc1 [Nefazodone HCl],0.0641
11,OCCN1CCN(CC/C=C2/c3ccccc3Sc3ccc(Cl)cc32)CC1 [Zuclopenthixol hydrochloride],-0.213
12,CN(C)CCOC(=O)C(c1ccccc1)C1(O)CCCC1 (centres undefined) [Cyclopentolate hydrochloride],0.0641
13,Nc1ccc(/N=N/c2ccccc2)c(N)n1 [Phenazopyridine hydrochloride],-0.105
14,CCC(=O)O[C@]1(C(=O)SCF)[C@H](C)C[C@H]2[C@@H]3C[C@H](F)C4=CC(=O)C=C[C@]4(C)[C@@]3(F)[C@@H](O)C[C@@]21C [Fluticasone propionate],-0.445
15,O=C(O)c1ccccc1Nc1cccc(C(F)(F)F)c1 [Flufenamic acid],0.125
16,CC[N+](C)(CC)CCC[n+]1c(-c2ccccc2)c2cc(N)ccc2c2ccc(N)cc21 [Propidium iodide],-0.00123
17,O=C1O[C@H]([C@@H](O)CO)C(O)=C1O [Ascorbic acid],-0.132
18,Clc1ccc(C(c2ccccc2Cl)C(Cl)Cl)cc1 (centres undefined) [Mitotane],0.0967
19,O=C1Nc2ccc(Cl)cc2[C@@](C#CC2CC2)(C(F)(F)F)O1 [Efavirenz],-0.0919
20,COC1=CC(=O)C[C@@H](C)[C@]12Oc1c(Cl)c(OC)cc(OC)c1C2=O [Griseofulvin],-0.0364
21,CN(C)CCC(c1ccc(Cl)cc1)c1ccccn1 (centres undefined) [Chlorpheniramine maleate],0.0238
22,COc1cc(N)c(Cl)cc1C(=O)NC1CCN(CCCOc2ccc(F)cc2)CC1OC (centres undefined) [Cisapride],-0.015
23,CN(C)CCCC1(c2ccc(F)cc2)OCc2cc(C#N)ccc21 (centres undefined) [Citalopram Hydrobromide],0.0896
24,CCCC(CCC)C(=O)O [Valproic acid],-1.09
25,Cc1onc(-c2ccccc2)c1C(=O)N[C@@H]1C(=O)N2[C@@H]1SC(C)(C)[C@@H]2C(=O)O [Oxacillin sodium],0.153
